Laboratory results as given in the supplement of paper PMC10849652.
The other results are listed elsewhere or left out.

Sequences of proteins named here, by UniProt entry; tags and fusion partners are left off. A change or cut given only in a name is not applied to a line headed by its entry.
UniProt Q6IN85: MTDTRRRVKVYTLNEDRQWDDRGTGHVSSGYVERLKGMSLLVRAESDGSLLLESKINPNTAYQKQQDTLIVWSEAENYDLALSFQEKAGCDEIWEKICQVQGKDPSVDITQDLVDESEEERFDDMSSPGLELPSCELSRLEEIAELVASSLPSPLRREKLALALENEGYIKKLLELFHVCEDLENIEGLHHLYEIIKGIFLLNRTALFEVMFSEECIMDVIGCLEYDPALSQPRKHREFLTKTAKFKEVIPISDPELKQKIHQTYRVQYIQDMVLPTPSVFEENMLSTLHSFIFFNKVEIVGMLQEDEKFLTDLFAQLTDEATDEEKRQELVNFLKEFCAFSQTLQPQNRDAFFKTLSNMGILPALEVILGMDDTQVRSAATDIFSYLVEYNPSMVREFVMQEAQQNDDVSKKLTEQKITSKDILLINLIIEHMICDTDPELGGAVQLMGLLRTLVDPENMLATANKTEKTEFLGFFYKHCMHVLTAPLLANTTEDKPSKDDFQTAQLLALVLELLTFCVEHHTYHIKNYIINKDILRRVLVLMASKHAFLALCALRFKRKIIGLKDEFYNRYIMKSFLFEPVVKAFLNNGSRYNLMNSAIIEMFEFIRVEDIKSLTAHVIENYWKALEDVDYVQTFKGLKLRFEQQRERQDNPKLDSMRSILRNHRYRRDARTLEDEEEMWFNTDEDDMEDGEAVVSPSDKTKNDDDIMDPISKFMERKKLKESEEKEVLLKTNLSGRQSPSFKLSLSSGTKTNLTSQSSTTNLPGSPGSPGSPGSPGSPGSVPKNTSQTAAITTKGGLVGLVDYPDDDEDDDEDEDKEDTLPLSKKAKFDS
UniProt P32119: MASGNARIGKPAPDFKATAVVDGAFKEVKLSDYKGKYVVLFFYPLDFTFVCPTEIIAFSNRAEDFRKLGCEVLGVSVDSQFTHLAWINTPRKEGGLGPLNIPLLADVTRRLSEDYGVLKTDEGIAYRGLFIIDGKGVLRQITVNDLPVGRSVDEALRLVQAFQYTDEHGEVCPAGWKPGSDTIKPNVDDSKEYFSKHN
UniProt P30041: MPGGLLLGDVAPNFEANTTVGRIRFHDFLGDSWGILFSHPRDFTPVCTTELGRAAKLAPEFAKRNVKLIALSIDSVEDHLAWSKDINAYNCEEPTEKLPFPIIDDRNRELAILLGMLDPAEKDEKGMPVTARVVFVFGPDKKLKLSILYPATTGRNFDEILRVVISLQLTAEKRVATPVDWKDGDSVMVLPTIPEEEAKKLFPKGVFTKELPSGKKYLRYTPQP
UniProt Q9HCU5: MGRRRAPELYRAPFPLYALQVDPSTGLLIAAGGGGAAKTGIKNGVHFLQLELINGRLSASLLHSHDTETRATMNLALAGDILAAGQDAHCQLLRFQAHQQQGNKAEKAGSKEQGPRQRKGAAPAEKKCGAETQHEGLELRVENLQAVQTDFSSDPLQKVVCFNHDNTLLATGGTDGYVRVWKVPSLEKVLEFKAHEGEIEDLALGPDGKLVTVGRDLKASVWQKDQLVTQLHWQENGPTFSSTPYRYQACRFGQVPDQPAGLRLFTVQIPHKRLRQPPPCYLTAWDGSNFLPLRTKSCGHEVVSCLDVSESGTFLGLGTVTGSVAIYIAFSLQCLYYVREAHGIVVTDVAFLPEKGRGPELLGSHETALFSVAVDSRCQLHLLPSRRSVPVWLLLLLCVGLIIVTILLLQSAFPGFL
UniProt Q96SB3: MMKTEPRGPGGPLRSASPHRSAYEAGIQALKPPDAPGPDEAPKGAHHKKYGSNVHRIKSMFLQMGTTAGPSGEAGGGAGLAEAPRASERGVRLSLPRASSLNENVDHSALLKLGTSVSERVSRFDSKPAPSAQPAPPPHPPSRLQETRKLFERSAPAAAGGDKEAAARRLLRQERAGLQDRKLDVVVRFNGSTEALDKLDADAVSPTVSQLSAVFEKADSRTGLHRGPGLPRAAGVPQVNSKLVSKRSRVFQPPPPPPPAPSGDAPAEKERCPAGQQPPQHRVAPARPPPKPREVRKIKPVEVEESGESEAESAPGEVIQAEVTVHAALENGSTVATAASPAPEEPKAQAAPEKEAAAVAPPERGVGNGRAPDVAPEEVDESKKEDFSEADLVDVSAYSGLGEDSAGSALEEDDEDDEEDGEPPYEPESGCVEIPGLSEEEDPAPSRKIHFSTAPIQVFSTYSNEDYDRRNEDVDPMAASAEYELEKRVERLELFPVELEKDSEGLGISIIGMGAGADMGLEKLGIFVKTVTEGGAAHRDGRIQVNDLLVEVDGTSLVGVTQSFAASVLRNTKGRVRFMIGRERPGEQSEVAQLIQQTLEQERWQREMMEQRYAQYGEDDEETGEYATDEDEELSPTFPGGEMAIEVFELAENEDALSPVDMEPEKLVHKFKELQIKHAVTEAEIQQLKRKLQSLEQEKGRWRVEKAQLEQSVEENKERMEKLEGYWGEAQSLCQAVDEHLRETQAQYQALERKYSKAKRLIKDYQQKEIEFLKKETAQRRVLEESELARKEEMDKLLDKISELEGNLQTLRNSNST
UniProt Q92733: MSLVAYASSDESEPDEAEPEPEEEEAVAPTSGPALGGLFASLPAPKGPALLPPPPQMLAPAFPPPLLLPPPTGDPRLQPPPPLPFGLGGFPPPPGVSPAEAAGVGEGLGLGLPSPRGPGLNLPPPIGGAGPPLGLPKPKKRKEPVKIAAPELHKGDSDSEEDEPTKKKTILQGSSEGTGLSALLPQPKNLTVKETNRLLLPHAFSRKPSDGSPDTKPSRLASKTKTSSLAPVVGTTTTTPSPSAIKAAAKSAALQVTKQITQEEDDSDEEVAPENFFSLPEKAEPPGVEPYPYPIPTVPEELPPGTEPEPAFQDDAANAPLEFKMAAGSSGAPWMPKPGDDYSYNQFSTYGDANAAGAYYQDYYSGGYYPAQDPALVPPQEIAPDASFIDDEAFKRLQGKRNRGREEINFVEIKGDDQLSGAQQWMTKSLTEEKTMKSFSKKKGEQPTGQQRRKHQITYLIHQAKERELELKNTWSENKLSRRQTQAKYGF
UniProt P63098, whole entry, looked up: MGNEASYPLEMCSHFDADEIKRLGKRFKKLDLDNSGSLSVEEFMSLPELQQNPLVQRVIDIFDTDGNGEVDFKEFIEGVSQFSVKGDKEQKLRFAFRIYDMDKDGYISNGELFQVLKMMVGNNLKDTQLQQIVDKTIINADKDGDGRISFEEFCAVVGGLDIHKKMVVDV
UniProt Q14558: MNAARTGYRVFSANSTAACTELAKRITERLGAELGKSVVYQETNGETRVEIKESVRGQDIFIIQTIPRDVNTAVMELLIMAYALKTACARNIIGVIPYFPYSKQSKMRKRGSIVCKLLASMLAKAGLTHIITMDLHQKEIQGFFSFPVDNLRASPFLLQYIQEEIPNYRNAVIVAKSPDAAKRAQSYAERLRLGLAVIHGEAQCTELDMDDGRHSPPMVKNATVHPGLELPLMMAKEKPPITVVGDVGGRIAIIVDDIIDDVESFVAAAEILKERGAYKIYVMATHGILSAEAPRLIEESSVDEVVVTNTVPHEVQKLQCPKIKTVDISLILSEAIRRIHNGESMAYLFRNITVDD
UniProt O14744, whole entry, looked up: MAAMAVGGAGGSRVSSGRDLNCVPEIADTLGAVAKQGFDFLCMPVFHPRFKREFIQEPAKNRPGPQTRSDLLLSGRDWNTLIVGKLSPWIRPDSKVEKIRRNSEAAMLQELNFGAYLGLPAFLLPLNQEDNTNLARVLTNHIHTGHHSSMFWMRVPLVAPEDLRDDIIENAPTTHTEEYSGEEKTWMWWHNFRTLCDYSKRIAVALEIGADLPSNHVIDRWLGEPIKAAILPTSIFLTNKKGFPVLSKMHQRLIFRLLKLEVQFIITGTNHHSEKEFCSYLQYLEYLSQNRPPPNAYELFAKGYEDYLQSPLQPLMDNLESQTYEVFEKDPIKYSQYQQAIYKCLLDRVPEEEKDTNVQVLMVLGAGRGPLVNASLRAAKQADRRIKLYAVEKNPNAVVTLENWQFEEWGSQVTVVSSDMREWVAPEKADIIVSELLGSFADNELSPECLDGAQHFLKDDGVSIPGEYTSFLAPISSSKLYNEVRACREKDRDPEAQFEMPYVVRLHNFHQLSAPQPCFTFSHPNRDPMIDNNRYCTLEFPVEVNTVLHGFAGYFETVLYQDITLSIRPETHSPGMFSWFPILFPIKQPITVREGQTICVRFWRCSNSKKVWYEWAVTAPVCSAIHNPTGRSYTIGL
UniProt O60828: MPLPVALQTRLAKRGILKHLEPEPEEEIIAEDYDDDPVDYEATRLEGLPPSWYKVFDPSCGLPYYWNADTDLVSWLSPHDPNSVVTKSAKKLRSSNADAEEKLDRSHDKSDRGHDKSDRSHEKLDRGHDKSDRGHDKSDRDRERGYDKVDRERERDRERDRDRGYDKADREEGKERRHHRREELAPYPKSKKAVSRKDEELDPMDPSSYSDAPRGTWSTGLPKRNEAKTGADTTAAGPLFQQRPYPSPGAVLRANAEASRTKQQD
UniProt P63151: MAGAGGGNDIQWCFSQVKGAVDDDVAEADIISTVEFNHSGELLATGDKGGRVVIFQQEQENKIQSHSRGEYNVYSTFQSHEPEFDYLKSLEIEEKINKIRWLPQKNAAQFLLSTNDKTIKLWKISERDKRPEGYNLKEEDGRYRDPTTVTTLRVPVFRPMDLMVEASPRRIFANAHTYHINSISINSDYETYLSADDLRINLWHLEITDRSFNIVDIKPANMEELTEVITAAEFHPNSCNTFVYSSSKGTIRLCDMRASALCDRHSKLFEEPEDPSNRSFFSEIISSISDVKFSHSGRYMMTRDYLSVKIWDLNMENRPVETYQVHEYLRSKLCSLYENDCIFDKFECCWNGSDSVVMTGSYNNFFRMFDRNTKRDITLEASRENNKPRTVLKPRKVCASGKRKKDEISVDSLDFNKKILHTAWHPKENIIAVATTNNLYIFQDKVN
UniProt Q12972: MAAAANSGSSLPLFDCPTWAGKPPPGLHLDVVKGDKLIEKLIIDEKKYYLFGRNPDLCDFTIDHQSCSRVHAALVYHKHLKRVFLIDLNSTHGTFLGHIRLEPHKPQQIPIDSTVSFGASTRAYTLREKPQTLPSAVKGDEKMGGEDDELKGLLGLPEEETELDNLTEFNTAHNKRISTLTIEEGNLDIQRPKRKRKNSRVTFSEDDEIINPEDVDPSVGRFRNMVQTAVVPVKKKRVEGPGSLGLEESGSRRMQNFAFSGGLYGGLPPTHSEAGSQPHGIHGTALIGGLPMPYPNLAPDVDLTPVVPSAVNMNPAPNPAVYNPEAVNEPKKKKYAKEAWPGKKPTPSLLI
UniProt Q66LE6: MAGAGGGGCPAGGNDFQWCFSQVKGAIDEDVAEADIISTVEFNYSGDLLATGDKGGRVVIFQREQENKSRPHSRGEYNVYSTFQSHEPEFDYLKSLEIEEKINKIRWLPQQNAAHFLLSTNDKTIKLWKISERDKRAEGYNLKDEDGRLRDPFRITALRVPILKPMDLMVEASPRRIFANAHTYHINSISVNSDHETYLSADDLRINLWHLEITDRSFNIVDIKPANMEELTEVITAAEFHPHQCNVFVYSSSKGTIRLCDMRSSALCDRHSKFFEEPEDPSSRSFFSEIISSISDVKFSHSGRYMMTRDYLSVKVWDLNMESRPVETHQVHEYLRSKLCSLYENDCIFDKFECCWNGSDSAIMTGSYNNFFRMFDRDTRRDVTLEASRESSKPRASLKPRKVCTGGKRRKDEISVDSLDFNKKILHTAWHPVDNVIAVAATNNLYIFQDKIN
UniProt Q9UNN8: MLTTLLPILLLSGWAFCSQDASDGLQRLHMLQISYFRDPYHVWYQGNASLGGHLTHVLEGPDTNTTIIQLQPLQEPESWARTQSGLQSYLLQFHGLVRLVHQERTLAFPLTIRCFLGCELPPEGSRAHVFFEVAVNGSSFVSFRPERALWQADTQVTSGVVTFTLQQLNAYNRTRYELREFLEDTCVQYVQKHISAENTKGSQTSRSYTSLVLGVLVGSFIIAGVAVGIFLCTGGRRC

What was measured:
Assay in all cases: log2 fold change, soluble protein after heating vs DMSO (PISA); higher = thermal stabilisation; K562 cells, 10 uM, 30 min; active = over 0.2 and 3.5 SD of the protein, either way, in both replicates (recomputed)
[1] = compound: CC[C@@H]1C(=O)N(C)c2cnc(Nc3ccc(C(=O)NC4CCN(C)CC4)cc3OC)nc2N1C1CCCC1
Summary of the method: (§1)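 Soluble protein was defined as the supernatant after 21,000xg for 90 min. It came from K562 cells at 2×10^6 cells/mL given 10 μM compound for 30 min, heated in aliquots for 3 min across 48°C-58°C, pooled, and extracted in PBS with 0.5% NP-40 at 4°C, and was quantified by TMTpro 16plex LC-MS/MS with equalised channel sums. Thermal stability against control samples, from duplicates, is reported as log2 fold change.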

volasertib = compound: CC[C@@H]1C(=O)N(C)c2cnc(Nc3ccc(C(=O)N[C@H]4CC[C@H](N5CCN(CC6CC6)CC5)CC4)cc3OC)nc2N1C(C)C [volasertib]
Summary of the method: as §1

[2] = compound: CC[C@H](C)N1C=C(C2=C(C=C(C=C21)C3=CN=C(C=C3)N4CCNCC4)C(=O)NCC5=C(C=C(NC5=O)C)C)C
Summary of the method: as §1

epoxomicin = compound: CC[C@H](C)[C@@H](C(=O)N[C@@H]([C@@H](C)O)C(=O)N[C@@H](CC(C)C)C(=O)[C@]1(CO1)C)NC(=O)[C@H]([C@@H](C)CC)N(C)C(=O)C [epoxomicin]
Summary of the method: as §1

[3] = compound: CCn1c(C(=O)N(C2CC2)C2CC2)cc2c3c(ncn3C)c(Nc3cc(C)n(C)n3)nc21
Summary of the method: as §1

[4] = compound: CCn1cc(-c2ccnc3[nH]c(-c4cccc(CN(C)C)c4)cc23)c(-c2ccc(NC(=O)N(C)C)cc2)n1
Summary of the method: as §1

[5] = compound: CN(C)CC(=O)Nc1ccc2[nH]c(=O)c3ccccc3c2c1
Summary of the method: as §1

rosiglitazone = compound: CN(CCOC1=CC=C(C=C1)C[C@H]2C(=O)NC(=O)S2)C3=CC=CC=N3 (racemic) [rosiglitazone]
Summary of the method: as §1

[6] = compound: CN1C2=C(C3=C1C(=O)N(N=C3)CC4=CC(=CC=C4)N)SC(=C2)S(=O)C
Summary of the method: as §1

[7] = compound: CN1CCC(CNc2ccc3ncc(-c4cccc(OC(F)(F)F)c4)n3n2)CC1
Summary of the method: as §1

saracatinib = compound: CN1CCN(CCOc2cc(OC3CCOCC3)c3c(Nc4c(Cl)ccc5c4OCO5)ncnc3c2)CC1 [saracatinib]
Summary of the method: as §1

sotrastaurin = compound: CN1CCN(c2nc(C3=C(c4c[nH]c5ccccc45)C(=O)NC3=O)c3ccccc3n2)CC1 [sotrastaurin]
Summary of the method: as §1

alvocidib = compound: CN1CC[C@H](c2c(O)cc(O)c3c(=O)cc(-c4ccccc4Cl)oc23)[C@H](O)C1 [alvocidib]
Summary of the method: as §1

Tubastatin A = compound: CN1CCc2c(c3ccccc3n2Cc2ccc(C(=O)NO)cc2)C1 [Tubastatin A]
Summary of the method: as §1

[8] = compound: CNC(=O)C1=CC=CC=C1NC2=NC(=NC=C2Cl)NC3=C(C=C(C=C3)N4CCOCC4)OC
Summary of the method: as §1

defactinib = compound: CNC(=O)c1ccc(Nc2ncc(C(F)(F)F)c(NCc3nccnc3N(C)S(C)(=O)=O)n2)cc1 [defactinib]
Summary of the method: as §1

rucaparib = compound: CNCc1ccc(-c2[nH]c3cc(F)cc4c3c2CCNC4=O)cc1 [rucaparib]
Summary of the method: as §1

[9] = compound: CNc1nc(-c2ccc3c(N)n[nH]c3c2)cc(N2C[C@@H](C(=O)NC3CCCCC3)CC[C@H]2C)n1
Summary of the method: as §1

encorafenib = compound: COC(=O)N[C@@H](C)CNc1nccc(-c2cn(C(C)C)nc2-c2cc(Cl)cc(NS(C)(=O)=O)c2F)n1 [encorafenib]
Summary of the method: as §1

[10] = compound: COC(=O)[C@H](CCSC)NC(=O)C1=C(C=C(C=C1)NC[C@H](CS)N)C2=CC=CC=C2
Summary of the method: as §1

Measured: log2 fold change

PPP4R3A (UniProt Q6IN85)
inactive: [1] 0.01 | volasertib -0.112 | [2] 0.015 | epoxomicin -0.006 | [3] -0.005 | [4] 0 | [5] -0.017 | rosiglitazone -0.001 | [6] -0.074 | [7] -0.008 | saracatinib 0.007 | sotrastaurin 0.045 | alvocidib -0.042 | Tubastatin A 0.006 | [8] 0.035 | defactinib -0.04 | rucaparib -0.006 | [9] -0.066 | encorafenib -0.004 | [10] 0.029

PPP3CB isoform 4 (UniProt P16298)
inactive: [1] -0.005 | volasertib -0.109 | [2] 0.003 | epoxomicin 0.019 | [3] -0.021 | [4] 0.029 | [5] 0 | rosiglitazone 0.064 | [6] -0.017 | [7] -0.123 | saracatinib 0.006 | sotrastaurin 0.061 | alvocidib -0.019 | Tubastatin A 0.017 | [8] -0.026 | defactinib -0.004 | rucaparib -0.084 | [9] -0.192 | encorafenib -0.022 | [10] 0.029

PRDX2 (UniProt P32119)
inactive: [1] -0.028 | volasertib 0.097 | [2] -0.042 | epoxomicin 0 | [3] 0.029 | [4] -0.009 | [5] -0.007 | rosiglitazone 0.018 | [6] -0.075 | [7] -0.076 | saracatinib -0.05 | sotrastaurin 0.053 | alvocidib -0.021 | Tubastatin A -0.016 | [8] -0.026 | defactinib 0.01 | rucaparib 0.096 | [9] 0.004 | encorafenib -0.022 | [10] 0.029

PRDX6 (UniProt P30041)
inactive: [1] -0.034 | volasertib 0.123 | [2] 0.006 | epoxomicin -0.02 | [3] 0.032 | [4] -0.009 | [5] 0.022 | rosiglitazone 0.035 | [6] -0.078 | [7] -0.022 | saracatinib -0.052 | sotrastaurin 0.015 | alvocidib -0.028 | Tubastatin A -0.029 | [8] 0.021 | defactinib -0.022 | rucaparib -0.067 | [9] 0.036 | encorafenib -0.028 | [10] -0.005

PREB (UniProt Q9HCU5)
inactive: [1] 0.033 | volasertib -0.031 | [2] 0.033 | epoxomicin -0.01 | [3] -0.057 | [4] -0.027 | [5] -0.009 | rosiglitazone 0.002 | [6] -0.044 | [7] 0.071 | saracatinib 0.018 | sotrastaurin 0 | alvocidib -0.007 | Tubastatin A -0.016 | [8] 0.012 | defactinib 0.01 | rucaparib -0.02 | [9] -0.02 | encorafenib -0.013 | [10] 0.026

PRKDC (UniProt P78527)
inactive: [1] -0.088 | volasertib -0.178 | [2] 0.04 | epoxomicin 0.054 | [3] -0.008 | [4] -0.037 | [5] 0.025 | rosiglitazone 0.027 | [6] -0.073 | [7] -0.059 | saracatinib 0.008 | sotrastaurin 0.006 | alvocidib -0.07 | Tubastatin A -0.021 | [8] 0.002 | defactinib -0.057 | rucaparib -0.019 | [9] -0.004 | encorafenib 0.039 | [10] -0.023

PPP1R9B (UniProt Q96SB3)
inactive: [1] 0.118 | volasertib -0.022 | [2] -0.24 | epoxomicin -0.102 | [3] -0.057 | [4] -0.024 | [5] -0.083 | rosiglitazone -0.086 | [6] 0.135 | [7] -0.032 | saracatinib -0.027 | sotrastaurin 0.152 | alvocidib 0.128 | Tubastatin A -0.183 | [8] -0.085 | defactinib 0 | rucaparib 0.059 | [9] -0.049 | encorafenib 0.128 | [10] 0.083

PRCC (UniProt Q92733)
inactive: [1] -0.043 | volasertib -0.042 | [2] 0.008 | epoxomicin -0.024 | [3] -0.019 | [4] 0.009 | [5] 0.005 | rosiglitazone -0.021 | [6] 0.005 | [7] 0.004 | saracatinib -0.001 | sotrastaurin 0.035 | alvocidib 0.017 | Tubastatin A -0.005 | [8] -0.024 | defactinib -0.057 | rucaparib -0.025 | [9] -0.102 | encorafenib -0.035 | [10] 0.02

PPP3R1 (UniProt P63098)
inactive: [1] -0.007 | volasertib -0.024 | [2] 0.035 | epoxomicin 0.065 | [3] 0 | [4] 0.028 | [5] 0.014 | rosiglitazone 0.006 | [6] -0.041 | [7] -0.159 | saracatinib 0.075 | sotrastaurin 0.027 | alvocidib -0.003 | Tubastatin A 0.053 | [8] 0.082 | defactinib -0.03 | rucaparib -0.012 | [9] -0.058 | encorafenib 0.018 | [10] -0.01

PRPSAP1 isoform 2 (UniProt Q14558)
inactive: [1] 0.046 | volasertib 0.087 | [2] -0.014 | epoxomicin -0.002 | [3] 0.009 | [4] 0.005 | [5] -0.054 | rosiglitazone -0.049 | [6] 0.019 | [7] -0.004 | saracatinib 0.039 | sotrastaurin 0.027 | alvocidib 0.008 | Tubastatin A -0.022 | [8] -0.011 | defactinib 0.044 | rucaparib 0.019 | [9] 0.006 | encorafenib 0.012 | [10] 0.041

PRMT5 (UniProt O14744)
inactive: [1] -0.022 | volasertib 0.088 | [2] -0.009 | epoxomicin 0.019 | [3] -0.014 | [4] 0.004 | [5] 0.001 | rosiglitazone 0.019 | [6] -0.092 | [7] 0.005 | saracatinib -0.009 | sotrastaurin 0.027 | alvocidib 0.21 | Tubastatin A 0 | [8] 0.025 | defactinib 0.019 | rucaparib -0.012 | [9] -0.004 | encorafenib 0 | [10] -0.026

PQBP1 (UniProt O60828)
inactive: [1] 0.014 | volasertib 0.085 | [2] -0.033 | epoxomicin 0.003 | [3] 0.005 | [4] 0.039 | [5] 0.024 | rosiglitazone -0.004 | [6] -0.047 | [7] -0.024 | saracatinib 0.036 | sotrastaurin 0.039 | alvocidib -0.038 | Tubastatin A 0.011 | [8] -0.022 | defactinib 0.005 | rucaparib -0.013 | [9] -0.036 | encorafenib -0.029 | [10] -0.013

PPP2R2A isoform 2 (UniProt P63151)
inactive: [1] 0.01 | volasertib 0.014 | [2] -0.019 | epoxomicin 0.034 | [3] -0.006 | [4] -0.041 | [5] -0.014 | rosiglitazone 0.003 | [6] -0.074 | [7] 0.016 | saracatinib 0.036 | sotrastaurin 0.042 | alvocidib -0.029 | Tubastatin A -0.046 | [8] -0.031 | defactinib -0.019 | rucaparib -0.027 | [9] -0.047 | encorafenib 0 | [10] 0.002

PPP1R8 (UniProt Q12972)
inactive: [1] -0.067 | volasertib -0.054 | [2] 0.024 | epoxomicin 0.132 | [3] -0.013 | [4] -0.038 | [5] 0.084 | rosiglitazone 0.001 | [6] 0.003 | [7] -0.02 | saracatinib 0.018 | sotrastaurin -0.031 | alvocidib -0.066 | Tubastatin A 0.019 | [8] 0.014 | defactinib -0.038 | rucaparib 0 | [9] 0.001 | encorafenib 0.002 | [10] -0.009

PPP2R2D (UniProt Q66LE6)
inactive: [1] -0.035 | volasertib 0.114 | [2] 0 | epoxomicin 0.06 | [3] -0.011 | [4] 0.021 | [5] 0.038 | rosiglitazone 0.021 | [6] 0.011 | [7] -0.052 | saracatinib -0.095 | sotrastaurin 0.06 | alvocidib 0.006 | Tubastatin A 0.011 | [8] 0.097 | defactinib -0.003 | rucaparib 0.02 | [9] -0.066 | encorafenib -0.077 | [10] 0.108

PROCR (UniProt Q9UNN8)
inactive: [1] -0.084 | volasertib 0.249 | [2] -0.048 | epoxomicin 0.026 | [3] 0.046 | [4] -0.058 | [5] -0.157 | rosiglitazone -0.015 | [6] 0.057 | [7] 0.238 | saracatinib 0.139 | sotrastaurin 0.068 | alvocidib 0.121 | Tubastatin A -0.032 | [8] -0.018 | defactinib 0.055 | rucaparib -0.032 | [9] 0.057 | encorafenib -0.06 | [10] 0.125

Four neighbouring entries out of the list so far, quoted:
PRCC (UniProt Q92733)
inactive: [1] -0.043 | volasertib -0.042 | [2] 0.008 | epoxomicin -0.024 | [3] -0.019 | [4] 0.009 | [5] 0.005 | rosiglitazone -0.021 | [6] 0.005 | [7] 0.004 | saracatinib -0.001 | sotrastaurin 0.035 | alvocidib 0.017 | Tubastatin A -0.005 | [8] -0.024 | defactinib -0.057 | rucaparib -0.025 | [9] -0.102 | encorafenib -0.035 | [10] 0.02

PPP3R1 (UniProt P63098)
inactive: [1] -0.007 | volasertib -0.024 | [2] 0.035 | epoxomicin 0.065 | [3] 0 | [4] 0.028 | [5] 0.014 | rosiglitazone 0.006 | [6] -0.041 | [7] -0.159 | saracatinib 0.075 | sotrastaurin 0.027 | alvocidib -0.003 | Tubastatin A 0.053 | [8] 0.082 | defactinib -0.03 | rucaparib -0.012 | [9] -0.058 | encorafenib 0.018 | [10] -0.01

PRPSAP1 isoform 2 (UniProt Q14558)
inactive: [1] 0.046 | volasertib 0.087 | [2] -0.014 | epoxomicin -0.002 | [3] 0.009 | [4] 0.005 | [5] -0.054 | rosiglitazone -0.049 | [6] 0.019 | [7] -0.004 | saracatinib 0.039 | sotrastaurin 0.027 | alvocidib 0.008 | Tubastatin A -0.022 | [8] -0.011 | defactinib 0.044 | rucaparib 0.019 | [9] 0.006 | encorafenib 0.012 | [10] 0.041

PRMT5 (UniProt O14744)
inactive: [1] -0.022 | volasertib 0.088 | [2] -0.009 | epoxomicin 0.019 | [3] -0.014 | [4] 0.004 | [5] 0.001 | rosiglitazone 0.019 | [6] -0.092 | [7] 0.005 | saracatinib -0.009 | sotrastaurin 0.027 | alvocidib 0.21 | Tubastatin A 0 | [8] 0.025 | defactinib 0.019 | rucaparib -0.012 | [9] -0.004 | encorafenib 0 | [10] -0.026
